The other results are listed elsewhere or left out. The main result of the screen is listed elsewhere. These columns were measured beside it and carry no call. Compounds called inactive in the main read-out are mostly missing here. Words in brackets tell the shape of the fitted curve; partial curves, single points and poor fits give uncertain potencies.
Assay: qHTS Assay to Find Inhibitors of Chronic Active B-Cell Receptor Signaling
Conditions: ABC-DLBCL IkBa-CBG/CBR reporter, luminescence ratio (green luciferase fused to IkBa over red control in TMD8 lymphoma cells), 4 h
Method in brief: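 Compounds up to 46 uM were incubated four hours with TMD8 cells whose green CBG68 luciferase is fused to IkappaBalpha; red CBR luminescence normalised the signal, and concentration-effect curves were fitted to fusion, red and ratio data.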

[1] = measured here: CBR red luminescence, cell number

Structure (SMILES) | AC50 [1] | AC50 (measured here: IkBa-CBG green luminescence)
O=C(CCS(=O)(=O)c1ccc(Cl)cc1)N1CCN(c2ccccc2F)CC1 | 4.47 µM [falling, full curve, poor fit] | 
O=C(Cn1c(=O)n(Cc2ccco2)c(=O)c2ccccc21)Nc1cccc(Cl)c1 | 13 µM [falling, partial curve] | 
CCN(CC(=O)Nc1c(F)cccc1F)C(=O)/C=C/c1ccc(C)cc1 | 5.8 µM [falling, partial curve] | 
CCN1CCc2nc(NC(=O)Cc3ccc4c(c3)OCCO4)sc2C1 | 17.8 µM [rising, single point] | 
CCOC(=O)c1sc(N)c(C(N)=O)c1C | 22.4 µM [falling, partial curve, poor fit] | 
CCCn1c(CCc2ccccc2)nnc1SCC(=O)N1CCCC1 | 29.1 µM [rising, single point] | 
Cc1ccc(NC(=O)Cc2ccsc2)cc1Cl | 10 µM [rising, partial curve] | 
Cc1c(NC(=O)c2ccccc2NC(=O)COc2ccccc2)cccc1C(=O)O | 14.1 µM [falling, single point] | 
S=C(NCc1ccccc1)NCc1ccc2c(c1)OCO2 | 6.51 µM [rising, single point] | 
CCN(C(=O)c1cc2ccccc2oc1=O)c1cccc(C)c1 | 29.1 µM [falling, single point] | 
COc1ccc(CN(C)S(=O)(=O)c2c(C)noc2C)cc1OC | 29.1 µM [rising, single point] | 
NS(=O)(=O)c1ccc(CCNC(=O)CN2C(=O)c3ccccc3S2(=O)=O)cc1 | 11.6 µM [rising, partial curve, poor fit] | 
CCCCn1c(N)c(N(CCC(C)C)C(=O)C2CC(=O)N(Cc3ccc(C)cc3)C2)c(=O)[nH]c1=O (centres undefined) | 20.6 µM [falling, partial curve, poor fit] | 
COc1ccccc1N1CCN(CCc2n[nH]c(=S)n2-c2ccccc2)CC1 | 0.731 µM [falling, full curve, poor fit] | 
O=C(CCC(=O)N1CCc2ccccc2C1)NCCc1ccc(Cl)cc1 | 11.2 µM [rising, partial curve, poor fit] | 
CCCc1cc(NCC2CCCO2)n2c(nc3ccccc32)c1C#N (centres undefined) |  | 25.9 µM [rising, partial curve, poor fit]
O=C(Cc1ccc(Br)cc1)Nc1nc2ccccc2[nH]1 | 25.1 µM [falling, single point] | 
CCc1ccc(OC)c(S(=O)(=O)Nc2ccc(Cc3ccncc3)cc2)c1 | 35.5 µM [falling, single point] | 
CCN(CC1COc2ccccc2O1)C(=S)NC1CC2CCC1C2 (centres undefined) | 3.55 µM [rising, partial curve, poor fit] | 
CCCC/C(C)=N/NC(=O)c1cn(-c2ccccc2)nc1-c1ccccc1 | 25.9 µM [falling, single point] | 
CCc1sc(C(=O)Nc2ncccc2C)cc1C | 4.47 µM [falling, full curve] | 
CCN(CC)S(=O)(=O)c1ccc(/C=C/C(=O)Nc2cccc(F)c2)cc1 | 7.31 µM [falling, partial curve, poor fit] | 

Sorted by formula weight (rising): some entries from above.
Structure (SMILES) | AC50 [1] | AC50 (measured here: IkBa-CBG green luminescence)
CCN(C(=O)c1cc2ccccc2oc1=O)c1cccc(C)c1 | 29.1 µM [falling, single point] | 
CCN(CC1COc2ccccc2O1)C(=S)NC1CC2CCC1C2 (centres undefined) | 3.55 µM [rising, partial curve, poor fit] | 
CCN(CC(=O)Nc1c(F)cccc1F)C(=O)/C=C/c1ccc(C)cc1 | 5.8 µM [falling, partial curve] | 
CCN1CCc2nc(NC(=O)Cc3ccc4c(c3)OCCO4)sc2C1 | 17.8 µM [rising, single point] | 
O=C(CCC(=O)N1CCc2ccccc2C1)NCCc1ccc(Cl)cc1 | 11.2 µM [rising, partial curve, poor fit] | 
CCc1ccc(OC)c(S(=O)(=O)Nc2ccc(Cc3ccncc3)cc2)c1 | 35.5 µM [falling, single point] | 
COc1ccccc1N1CCN(CCc2n[nH]c(=S)n2-c2ccccc2)CC1 | 0.731 µM [falling, full curve, poor fit] | 
O=C(Cn1c(=O)n(Cc2ccco2)c(=O)c2ccccc21)Nc1cccc(Cl)c1 | 13 µM [falling, partial curve] | 
CCCCn1c(N)c(N(CCC(C)C)C(=O)C2CC(=O)N(Cc3ccc(C)cc3)C2)c(=O)[nH]c1=O (centres undefined) | 20.6 µM [falling, partial curve, poor fit] | 

Next entries follow:

Structure (SMILES) | AC50 [1] | AC50 (measured here: IkBa-CBG green luminescence)
NC(=O)c1ccccc1O | 18.4 µM [rising, partial curve, poor fit] | 
CC1CCCC(NC(=O)CSc2ncccc2C(=O)O)C1C (centres undefined) | 6.51 µM [falling, single point] | 
O=c1[nH]c(C(F)(F)F)nc2ccc3ccccc3c12 | 11.2 µM [falling, partial curve, poor fit] | 
CCOc1ccc(CCNC(=O)CSc2nn(-c3ccc(C)c(Cl)c3)c(=S)s2)cc1OCC | 29.1 µM [rising, single point] | 
O=C(NCC1(c2ccccc2)CCCC1)c1ccc(Br)cc1 | 29.1 µM [rising, single point] | 
Nc1nnc(SCC(=O)Nc2ccc(N3CCOCC3)c(Cl)c2)s1 | 35.5 µM [falling, single point] | 
Cc1ccc(C(=O)/C=C/NCc2ccc(F)cc2)cc1 | 7.31 µM [rising, partial curve, poor fit] | 
COc1cccc(NC2=NC3(CCCCC3)N=C(N)N2)c1 | 20.6 µM [rising, single point] | 
O=C(CSC(=S)N1CCCCC1)c1ccccc1 | 35.5 µM [falling, single point] | 
CN1C(=O)c2ccccc2Sc2ccc(NC(=O)NC3CC3)cc21 | 8.91 µM [rising, partial curve, poor fit] | 
OC(CN1CCN(c2ccccc2)CC1)c1c[nH]c2ccccc12 (centres undefined) | 8.91 µM [falling, partial curve, poor fit] | 
COc1ccc2nc(NCc3cccnc3)sc2c1 | 22.4 µM [falling, single point] | 
COc1ccccc1C(=O)Nc1ccccn1 | 29.1 µM [falling, single point] | 
O=C(O)/C=C/C(=O)Nc1ccc(OC(F)F)cc1 | 3.98 µM [rising, single point] | 
Cc1nc2cc(NC(=O)c3cccc(S(C)(=O)=O)c3)ccc2o1 | 17.8 µM [falling, partial curve] | 
N#Cc1nccnc1S(=O)(=O)c1cccs1 | 5.01 µM [falling, partial curve] | 
CNC(=O)c1ccc(Nc2nnc(-c3ccc(C(N)=O)cc3)c3ccccc23)cc1 | 3.98 µM [rising, full curve, poor fit] | 
Cc1nnc(-c2ccc(Oc3ccc(Cl)cc3)c([N+](=O)[O-])c2)o1 | 29.1 µM [falling, partial curve, poor fit] | 
CCS(=O)(=O)Nc1ccc(-c2nnc(SCC(=O)OC)o2)cc1 | 20 µM [falling, single point] | 
CCC(=O)N(CCC1(C(C)C)CCOC(C)(C)C1)Cc1ccco1 (centres undefined) | 16.4 µM [falling, single point] | 
Cc1cc(-c2cc(-c3ccccc3)on2)nc(NCC2CC2)n1 | 0.398 µM [rising, full curve, poor fit] | 
CCn1c(=O)c(=O)[nH]c2cc(C(=O)NC3CCCc4ccccc43)ccc21 (centres undefined) | 32.6 µM [falling, single point] | 

From PubChem BioAssay AID493014 (National Center for Advancing Translational Sciences (NCATS), 2011)
